Literature values in patent publication US6764829B2, “Nucleoside hydrolase and nucleoside phosphorylase detection kits, dipsticks and substrates” (Albert Einstein College of Medicine of Yeshiva University, priority 1996, dated 2004).
For some assays here: At least one read-out could not be matched to a standard name with certainty. For some assays here: For at least one compound, name, drawing or mass did not settle the structure.

By UniProt entry, the sequences of proteins in these tests, tags left out. Where a name states a change or a piece, a line headed by the entry shows the natural chain unless it says otherwise.
UniProt P0AE12: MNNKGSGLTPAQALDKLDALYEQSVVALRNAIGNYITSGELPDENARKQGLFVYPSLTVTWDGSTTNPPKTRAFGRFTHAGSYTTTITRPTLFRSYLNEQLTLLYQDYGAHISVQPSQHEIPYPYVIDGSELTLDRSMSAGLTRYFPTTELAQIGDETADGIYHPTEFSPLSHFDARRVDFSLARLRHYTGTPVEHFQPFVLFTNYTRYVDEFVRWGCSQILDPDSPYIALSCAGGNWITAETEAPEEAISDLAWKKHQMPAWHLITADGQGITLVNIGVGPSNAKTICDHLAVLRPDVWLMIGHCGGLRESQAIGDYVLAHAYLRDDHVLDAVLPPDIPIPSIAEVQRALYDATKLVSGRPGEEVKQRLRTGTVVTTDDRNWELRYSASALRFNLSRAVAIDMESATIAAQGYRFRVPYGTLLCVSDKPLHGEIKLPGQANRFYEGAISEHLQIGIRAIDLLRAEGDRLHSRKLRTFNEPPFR

Tests used:
GI-nucleoside hydrolase = details: purine substrate; cited from earlier work
AMP nucleosidase = AMP nucleosidase (Escherichia coli, UniProt P0AE12); details: purine substrate; cited from earlier work

| SMILES | kcat/Km (GI-nucleoside hydrolase) | kcat/Km (AMP nucleosidase) |
| --- | --- | --- |
| Nc1nc2c(ncn2[C@@H]2O[C@H](CO)[C@@H](O)[C@H]2O)c(=O)[nH]1 [guanosine] | 3.2e+06 M⁻¹ s⁻¹ | – |
| Nc1ncnc2c1ncn2[C@@H]1O[C@H](COP(=O)(O)O)[C@@H](O)[C@H]1O [AMP] | – | 180000 M⁻¹ s⁻¹ |
